Data published in paper doi:10.1101/2021.04.10.439283.
No constants are given. Whether binding was seen depends on the method and setting. Some binding calls cover weakened binding; strength is not graded here. Sequences can lack the tags named with a protein.

Columns and labels:
[1] = biological target: T1, Dna2-N terminal domain (1-450 aa) fused to lexA-DBD (S. cerevisiae) (UniProt P38859); experiment: two-hybrid
T1 sequence: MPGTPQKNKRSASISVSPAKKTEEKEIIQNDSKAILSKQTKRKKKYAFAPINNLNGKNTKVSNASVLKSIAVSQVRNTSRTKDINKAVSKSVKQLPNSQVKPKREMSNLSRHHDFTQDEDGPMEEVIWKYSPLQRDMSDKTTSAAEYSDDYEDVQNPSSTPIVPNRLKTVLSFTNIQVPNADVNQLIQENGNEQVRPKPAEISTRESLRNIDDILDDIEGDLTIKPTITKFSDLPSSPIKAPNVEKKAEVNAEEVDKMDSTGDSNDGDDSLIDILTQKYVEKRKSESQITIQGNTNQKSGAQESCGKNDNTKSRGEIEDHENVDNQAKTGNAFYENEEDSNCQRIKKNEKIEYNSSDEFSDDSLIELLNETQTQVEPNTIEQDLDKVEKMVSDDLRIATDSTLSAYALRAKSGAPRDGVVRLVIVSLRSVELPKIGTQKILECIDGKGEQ

[2] = biological target: T2, Rad50 fused to lexA-DBD (S. cerevisiae) (UniProt P12753); experiment: two-hybrid
T2 sequence: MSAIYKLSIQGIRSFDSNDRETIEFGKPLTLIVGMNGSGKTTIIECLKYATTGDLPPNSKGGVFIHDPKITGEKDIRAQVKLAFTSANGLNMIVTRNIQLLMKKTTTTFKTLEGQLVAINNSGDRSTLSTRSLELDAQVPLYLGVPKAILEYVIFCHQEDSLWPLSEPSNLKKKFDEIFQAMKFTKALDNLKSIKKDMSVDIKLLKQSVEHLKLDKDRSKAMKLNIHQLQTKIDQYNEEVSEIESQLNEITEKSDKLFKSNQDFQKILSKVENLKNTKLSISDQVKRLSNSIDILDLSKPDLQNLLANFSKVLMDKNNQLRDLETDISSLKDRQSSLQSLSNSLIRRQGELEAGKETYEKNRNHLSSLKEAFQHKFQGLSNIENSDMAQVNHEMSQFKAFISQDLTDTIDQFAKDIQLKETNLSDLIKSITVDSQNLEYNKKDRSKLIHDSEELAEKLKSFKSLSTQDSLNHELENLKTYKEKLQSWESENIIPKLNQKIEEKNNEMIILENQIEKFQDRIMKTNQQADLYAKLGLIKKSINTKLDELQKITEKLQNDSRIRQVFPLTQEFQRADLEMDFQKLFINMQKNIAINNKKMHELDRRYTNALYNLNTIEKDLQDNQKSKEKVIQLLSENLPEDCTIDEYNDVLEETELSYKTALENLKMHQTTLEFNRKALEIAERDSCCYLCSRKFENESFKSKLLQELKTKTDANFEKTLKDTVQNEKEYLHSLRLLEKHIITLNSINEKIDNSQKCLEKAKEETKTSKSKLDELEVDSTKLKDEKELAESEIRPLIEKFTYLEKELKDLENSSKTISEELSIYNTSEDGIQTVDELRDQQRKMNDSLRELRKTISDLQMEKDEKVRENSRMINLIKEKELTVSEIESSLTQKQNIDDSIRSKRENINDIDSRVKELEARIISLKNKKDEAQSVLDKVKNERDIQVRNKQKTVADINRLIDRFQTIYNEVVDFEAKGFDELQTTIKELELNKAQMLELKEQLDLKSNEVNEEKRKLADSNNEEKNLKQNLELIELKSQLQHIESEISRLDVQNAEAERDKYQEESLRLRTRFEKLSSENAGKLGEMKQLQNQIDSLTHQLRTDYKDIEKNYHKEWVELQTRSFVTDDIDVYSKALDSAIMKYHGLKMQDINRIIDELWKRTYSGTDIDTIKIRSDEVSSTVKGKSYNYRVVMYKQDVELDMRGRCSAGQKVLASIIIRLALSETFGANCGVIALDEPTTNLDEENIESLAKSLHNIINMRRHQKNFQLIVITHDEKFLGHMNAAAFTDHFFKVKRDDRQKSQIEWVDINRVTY

B1: Sae2 fused to HA-AD (protein, UniProt P46946 1-345)
chain: MVTGEENVYLKSSLSILKELSLDELLNVQYDVTTLIAKRVQALQNRNKCVLEEPNSKLAEILCHEKNAPQQSSQTSAGPGEQDSEDFILTQFDEDIKKESAEVHYRNENKHTVQLPLVTMPPNRHKRKISEFSSPLNGLNNLSDLEDCSDTVIHEKDNDKENKTRKLLGIELENPESTSPNLYKNVKDNFLFDFNTNPLTKRAWILEDFRPNEDIAPVKRGRRKLERFYAQVGKPEDSKHRSLSVVIESQNSDYEFAFDNLRNRSKSPPGFGRLDFPSTQEGNEDKKKSQEIIRRKTKYRFLMASNNKIPPYEREYVFKREQLNQIVDDGCFFWSDKLLQIYARC
binding [1]: binds
binding [2]: binds
